According to publication PMC9885066:
These are yes or no findings as the source states them, for the method shown. Binding seen in cells or lysates may run through a third protein. Some binding calls cover weakened binding; strength is not graded here.

Chains of the proteins cited; added tags and fusions are not shown.
UniProt P60953: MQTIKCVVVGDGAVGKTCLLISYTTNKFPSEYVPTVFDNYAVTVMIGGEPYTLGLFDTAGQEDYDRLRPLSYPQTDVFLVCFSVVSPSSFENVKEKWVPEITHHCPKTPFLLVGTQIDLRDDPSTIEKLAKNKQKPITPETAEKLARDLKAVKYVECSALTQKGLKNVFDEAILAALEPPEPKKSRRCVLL
UniProt P08670: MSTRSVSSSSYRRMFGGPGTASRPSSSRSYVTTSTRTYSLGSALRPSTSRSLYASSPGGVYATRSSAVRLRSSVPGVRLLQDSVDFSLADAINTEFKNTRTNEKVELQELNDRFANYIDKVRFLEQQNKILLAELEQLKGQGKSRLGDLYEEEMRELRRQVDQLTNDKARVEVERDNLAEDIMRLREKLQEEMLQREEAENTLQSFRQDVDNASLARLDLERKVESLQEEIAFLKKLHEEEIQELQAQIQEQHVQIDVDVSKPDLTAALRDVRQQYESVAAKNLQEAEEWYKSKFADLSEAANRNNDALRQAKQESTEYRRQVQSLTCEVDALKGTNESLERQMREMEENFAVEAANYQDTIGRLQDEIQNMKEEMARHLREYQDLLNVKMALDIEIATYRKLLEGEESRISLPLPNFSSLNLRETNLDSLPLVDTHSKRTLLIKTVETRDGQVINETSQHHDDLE

What was measured:
[1] = target: SopB-N-GFP (pCS2-EGFP-N1-SopB, 29-168 amino acid) (Salmonella) (UniProt O30916); experiment: co-IP; lysates of cells 16 h after transfection with SopB-GFP constructs; anti-GFP beads, 1 h, 4 °C; 50 mM Tris-HCl pH 8.0, 150 mM NaCl, 0.5% NP40, 1 mM EDTA; Western blotting for vimentin and Cdc42
[2] = target: SopB-ΔN-GFP (pCS2-EGFP-N1-SopB, 168-561 amino acid) (Salmonella) (UniProt O30916); experiment: as above

**Q.** Which binding [1] does the source give for “Cdc42 GTPase (from UniProt P60953 1-191)” here?
**A.** Its binding is “binds”.

**Q.** What about the binding [2] of the same substance?
**A.** The binding was “no binding”.

**Q.** vimentin (from UniProt P08670 1-466) was tested. Which binding [1] did it give?
**A.** Its binding is “binds”.

**Q.** What about the binding [2] of the same substance?
**A.** The binding was “no binding”.
